The assay is described as follows: qHTS Assay for Lipid Storage Modulators in Drosophila S3 Cells.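 As to cell number change: cells counted by Cell Tracker Red CMTPX staining in the red channel.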 The settings on record: BODIPY lipid droplet fluorescence, 18-24 h; for cell number change: measured here: cell count max response, cells fed with added oleic acid. The gist of the method:
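Drosophila S3 cells got compounds at several concentrations plus oleic acid (400 uM solution). Laser-scanning cytometry with 488 nm excitation read lipid droplets at 500-530 nm and cells at 575-640 nm. Percent activity was relative to 20 uM Triacsin C.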

Where [1] appears, read: measured here: cell number channel AC50, cells fed with added oleic acid.
[2] abbreviates: measured here: lipid fluorescence (Fed channel) AC50, cells fed with added oleic acid.

This passage reports cell number change and AC50 results from PubChem BioAssay AID2685 (National Center for Advancing Translational Sciences (NCATS), 2010).

The structures appear in SMILES notation. Some of the results follow. These are further read-outs of the screen, such as a control signal, another cell line or another target. No call is given for them. Most of these compounds were active or inconclusive in the main read-out, so they are no random draw. Words in brackets tell the shape of the fitted curve; partial curves, single points and poor fits give uncertain potencies.

For `Cc1ccc(Cn2nnc3c(=O)[nH]c(C4CCCN(S(=O)(=O)c5ccccc5F)C4)nc32)cc1` (stereo unspecified), the cell number change was found to be 115%. Further, the AC50 (usually the concentration at which the activity in the assay is half-maximal) under setting [1] was 23.1 µM [rising, partial curve]. For the same compound, the AC50 under setting [2] is 6.51 µM [rising, single point].
In the case of `O=S(=O)(N1CCCCC1)n1nnc2ccccc21`, the cell number change is -89.3%. Also, under setting [1], the AC50 is 2.59 µM [falling, full curve].
For the compound `Cc1cccc(C)c1NC(=O)CN(C)C(=O)c1cc(S(=O)(=O)N2CCOCC2)ccc1N1CCCC1`, the cell number change is -19.3%.
With `COC(=O)c1ccccc1NC(=O)C1CCN(C(=O)Cc2ccccc2)CC1`, the cell number change was 19.5%.
For the compound `Nc1ccc(O)c2c(=O)cc(-c3ccccc3Cl)oc12`, the cell number change is 0.0128%. Also, the AC50 under setting [2] was 29.1 µM [rising, single point].
On to `COc1ccc(-n2nc(C(=O)NCC(=O)NCCN(C)C)c3ccccc3c2=O)c(OC)c1`, for which the AC50 under setting [1] is 0.58 µM [rising, single point] and the AC50 under setting [2] was 29.1 µM [rising, single point].
`CCn1c(-c2cc(-c3ccccc3)sc2N)n[nH]c1=S`: the cell number change was -21.1%. Under setting [2], the AC50 is 32.6 µM [falling, single point].
For the compound `COC(=O)/C(C#N)=C/c1c(N2CCN(c3cccc(Cl)c3)CC2)nc2c(C)cccn2c1=O`, the cell number change stood at 59.5%. Besides, the AC50 under setting [1] was 18.4 µM [rising, single point].
For `COc1ccc(-c2c(C#Cc3ccsc3)c3cc(-c4ccc5c(c4)OCO5)ccc3n2C)cc1`, the cell number change was 21.7%. In addition, the AC50 under setting [2] was 20.6 µM [rising, single point].
As to `CCOC(=O)c1c(NC(=O)CSc2nnc(C)c(=O)[nH]2)sc2c1CCCC2`, the cell number change came out at 59.2%. The AC50 under setting [1] is 18.4 µM [rising, partial curve].
As to `COc1ccc(N(CC(=O)NCc2ccco2)S(=O)(=O)c2ccc(C)cc2)cc1OC`, the cell number change was found to be 94.3%. Besides, the AC50 under setting [2] is 16.4 µM [rising, partial curve].
Consider `Cc1ccccc1CCN(C(=O)c1csnn1)C(C(=O)NC1CCCC1)c1ccco1` (stereo unspecified), for which, under setting [1], the AC50 was 2.06 µM [rising, partial curve, poor fit].
With `CCCCCOc1ccc(C(=O)CCC(=O)N2CCCC2)cc1`, the cell number change is -13.7%. Moreover, under setting [1], the AC50 was 0.0231 µM [falling, single point].
On to `Cc1cc(Oc2ccccc2)nc(SCC(=O)Nc2ccc(Cl)c(Cl)c2)n1`, for which the cell number change stood at 20%. Also, under setting [2], the AC50 was 14.6 µM [rising, partial curve].
With `Cc1cccnc1NC(=O)c1c(O)c2cccc3c2n(c1=O)CCC3`, the cell number change was -8.09%. In addition, the AC50 under setting [2] was 0.92 µM [rising, full curve, poor fit].
On to `Cc1cc(NC(=O)C2CCCN(S(=O)(=O)c3c(C)noc3C)C2)no1` (stereo unspecified), for which the cell number change was found to be 19%. Under setting [2], the AC50 is 16.4 µM [rising, single point].
With `CCOC(=O)N1CCN(CC(=O)Nc2ccc([N+](=O)[O-])cc2C(=O)Nc2ccccc2F)CC1`, the cell number change came out at 22%. The concentration at half-maximal activity (AC50) under setting [2] was 2.31 µM [rising, partial curve].
As for `COc1ccc(C)cc1NS(=O)(=O)c1cn(C)nc1C`, the cell number change turned out to be 32.9%. Under setting [1], the AC50 was 0.116 µM [falling, full curve, poor fit].
Take `COc1ccccc1CNC(=O)CCCC(=O)n1ncc2cc(C)ccc21`: the cell number change was -6.05%. Besides, the AC50 under setting [2] was 5.17 µM [falling, single point].
For the compound `COc1ccc(CNc2ncnc3sccc23)cc1`, the cell number change was found to be 10.5%. Under setting [1], the AC50 was 0.0291 µM [rising, full curve, poor fit].
As for `C=CCC(Nc1ccccc1)c1cccc(OC)c1OC` (stereo unspecified), the cell number change came out at 9.59%. Under setting [2], the AC50 was 0.92 µM [rising, partial curve].
As to `O=C(Nc1ccc(Br)cc1Br)C1CC(=O)N(Cc2ccccc2)C1` (stereo unspecified), the cell number change is 23.8%. The AC50 under setting [2] was 4.11 µM [rising, full curve, poor fit].
For the compound `CCOC(=O)c1c(N)sc2c(NC(C)=O)cccc12`, the cell number change was -16.8%. The AC50 under setting [2] was 10.3 µM [rising, partial curve, poor fit].
Turning to `CCCOC1CCCN(Cc2nc(-c3cnccn3)no2)C1` (stereo unspecified), the AC50 under setting [2] is 0.103 µM [rising, full curve, poor fit].
Regarding `O=C1CN(C(=O)c2c(F)cccc2F)C(c2ccc(F)cc2)c2cc(F)ccc2N1` (stereo unspecified), the cell number change was 21.6%.
For `COc1cccc(Nc2nc3ccccc3n3cnnc23)c1`, the cell number change is -41%. Under setting [1], the AC50 is 9.2 µM [falling, partial curve]. Further, the AC50 under setting [2] was 4.11 µM [falling, single point].
With `O=C1C=C(NCCN2CCOCC2)C(=O)c2cnccc21`, the AC50 under setting [2] was 5.17 µM [falling, partial curve].
In the case of `NNC(=O)c1oc2nc(-c3ccc(Cl)cc3)cc(-c3ccccc3)c2c1N`, the cell number change is -31.5%. The AC50 under setting [1] is 32.6 µM [falling, single point]. Moreover, under setting [2], the AC50 is 3.66 µM [falling, partial curve].
On to `COc1ccc2oc(-c3ccc(NC(=O)c4ccc(N5CCOCC5)c([N+](=O)[O-])c4)cc3)nc2c1`, for which the cell number change was -13.3%. In addition, the AC50 under setting [2] was 11.6 µM [falling, single point].
Consider `CC(C)C[C@H]1C(=O)N2CCC[C@H]2[C@]2(O)O[C@](NC(=O)[C@@H]3C=C4c5cccc6[nH]c(Br)c(c56)CC4N(C)C3)(C(C)C)C(=O)N12` (stereo partly specified), for which the cell number change is -31.1%. Further, the AC50 under setting [1] was 29.1 µM [falling, single point]. The AC50 under setting [2] was 0.00461 µM [falling, full curve, poor fit].
In the case of `COc1cccc(C2C(C#N)=C(N)N(N(C)C)C3=C2C(=O)CCC3)c1OC` (stereo unspecified), the cell number change was 15.3%.
Take `O=C(Nc1ccc(F)c(Cl)c1)C1CCCCC1`: the cell number change is -34.1%. For the same compound, the concentration at half-maximal activity (AC50) under setting [1] was 6.51 µM [falling, partial curve, poor fit].
As for `CC(C)(O)C(=O)NNC(=S)NCc1ccco1`, the cell number change turned out to be 17.3%. Further, under setting [2], the AC50 was 0.1 µM [rising, full curve, poor fit].
Consider `COc1ccc2cc(C(=O)C3CCCN(C(=O)C4=NN(C)C(=O)CC4)C3)ccc2c1` (stereo unspecified), for which the cell number change was found to be 13.9%. For the same compound, the AC50 under setting [2] was 6.51 µM [rising, single point].
On to `Cc1ccccc1C(=O)N1CCN(S(=O)(=O)c2ccccc2)CC1`, for which the cell number change was found to be 3.96%. Moreover, the AC50 under setting [2] was 29.1 µM [rising, single point].
For `CCOC(=O)/C=C1\NC(C)(C)Cc2cc(OC)c(O)cc21`, the cell number change is -56.9%. In addition, the AC50 under setting [1] was 32.6 µM [falling, partial curve, poor fit]. Also, the concentration at half-maximal activity (AC50) under setting [2] is 0.366 µM [falling, full curve].
As to `O=C(O)c1cccc(N/N=C(\N=Nc2ccccc2)c2ccccc2)c1`, the cell number change stood at 17.9%.
With `Cc1ccc(-c2nn(CC(=O)NN3CCOCC3)c(=O)c3ccccc23)cc1`, the cell number change was -30.1%. Besides, the AC50 under setting [1] is 2.06 µM [falling, full curve, poor fit]. Moreover, the AC50 under setting [2] was 5.8 µM [falling, full curve].
Take `CCOC(=O)C1CCCN(C(=O)Cn2cnc3c2c(=O)n(C)c(=O)n3C)C1` (stereo unspecified): the cell number change amounted to 15%. The AC50 under setting [2] is 0.116 µM [falling, single point].
For `O=C1c2cccc3cccc(c23)C(=O)N1c1nccs1`, the cell number change came out at 0.982%. The AC50 under setting [2] was 32.6 µM [rising, partial curve, poor fit].
`CCC(C)[C@H](NS(=O)(=O)c1ccc(C)cc1)C(=O)N1CCC(C(=O)N[C@@H](Cc2ccccc2)C(=O)O)CC1` (stereo partly specified): the cell number change is -9.16%. The half-maximal activity concentration (AC50) under setting [2] was 0.651 µM [rising, single point].
Turning to `CCCN(CCC)CCCNC(=O)c1cc2c(-c3ccc(OC)c(OC)c3)nn(C)c2s1`, the cell number change is -2.83%. For the same compound, the AC50 under setting [2] was 29.1 µM [falling, single point].
Take `Cc1ccc(-n2nc(C)c3c(C)c(CCC(=O)NCc4ccccc4)c(C)nc32)cc1`: the cell number change was -19%. Besides, the concentration at half-maximal activity (AC50) under setting [2] was 32.6 µM [falling, partial curve, poor fit].
`COc1ccc(CCNC(=O)CCc2ccsc2)cc1OC`: under setting [2], the AC50 was 29.1 µM [rising, single point].
Consider `COc1ccc(-c2cc(C(=O)OC(C)C(=O)Nc3c(C)n(C)n(-c4ccccc4)c3=O)c3ccccc3n2)cc1` (stereo unspecified), for which the cell number change was -4.2%. In addition, the AC50 under setting [2] was 0.00517 µM [rising, full curve].
With `CC(C)CN(C1CCS(=O)(=O)C1)S(=O)(=O)c1ccc(C(C)C)cc1` (stereo unspecified), the cell number change is -17.6%. For the same compound, the AC50 under setting [2] was 20.6 µM [falling, partial curve, poor fit].
Take `CCc1cccc(C)c1NC(=O)CCOc1ccccc1`: the cell number change was determined as 15.4%. Also, the AC50 under setting [2] was 4.11 µM [rising, partial curve].
As for `O=C(COC(=O)Cn1[nH]c(=O)c2ccccc2c1=O)Nc1c(Cl)cccc1C(F)(F)F`, the cell number change was -3.74%. The AC50 under setting [2] is 3.66 µM [rising, full curve, poor fit].
`Cc1cc(C)c(C)c(S(=O)(=O)N2CCN(C(=O)CCc3nc4ccccc4c(=O)[nH]3)CC2)c1C`: the cell number change was -20.3%. Besides, the AC50 under setting [2] is 9.2 µM [falling, partial curve, poor fit].
Regarding `C/C(=N\NC(=O)c1cc(-c2cccc([N+](=O)[O-])c2)n[nH]1)c1ccccc1O`, the cell number change turned out to be 6.57%. Besides, under setting [2], the AC50 is 8.2 µM [rising, partial curve].
As for `Cc1cccc(Nc2nnc(SCC(=O)NC3CCCc4ccccc43)s2)c1C` (stereo unspecified), the cell number change was -9.61%. For the same compound, under setting [2], the AC50 was 1.46 µM [falling, full curve, poor fit].
For `O=C(Cn1ccc([N+](=O)[O-])n1)NCC1CCCO1` (stereo unspecified), the cell number change is -3.76%. Moreover, the AC50 under setting [2] was 0.92 µM [falling, partial curve, poor fit].
With `Cc1ccc([N+](=O)[O-])c(OCCN2CCC(Cc3ccccc3)CC2)c1`, the cell number change came to 8.31%. Moreover, the AC50 under setting [1] was 0.0058 µM [falling, full curve, poor fit]. The AC50 under setting [2] was 0.00517 µM [falling, full curve, poor fit].
`CCCOc1cccc(C2C(C(=O)c3ccc(C)o3)=C(O)C(=O)N2CCN2CCOCC2)c1` (stereo unspecified): the cell number change was 12.2%. Besides, under setting [2], the AC50 is 20.6 µM [rising, single point].
For the compound `O=C(CSc1ncnc2c1sc1ccccc12)Nc1ccc(Br)cc1`, the cell number change amounted to 2.94%. Under setting [2], the half-maximal activity concentration (AC50) was 0.82 µM [rising, single point].
As for `COC1c2ccccc2C(=O)N1Cc1ccc(F)cc1` (stereo unspecified), the cell number change was -7.08%. In addition, under setting [2], the AC50 is 0.231 µM [rising, full curve, poor fit].
As to `Cc1ccc(C(=O)OC(C)C(=O)NCc2ccc3c(c2)OCO3)cc1S(=O)(=O)N1CCOCC1` (stereo unspecified), the cell number change was -16.1%.
